Molecules are shown by their SMILES.

The data set is described as follows: RP, Waters ACQUITY UPLC HSS T3, 100 × 2.1 mm, 1.8 µm, 30 °C, 0.3 mL/min, estimated dead time 0.73 min; A: water + 0.1% formic acid, pH 3; B: methanol + 0.1% formic acid, pH 3; gradient (min/%B) 0/0 6/0 56/100 60/100. The following applies: stereoisomer not certain.

`O=C(O)C1=CC(O)C(O)C(O)C1` (configuration not stated) [shikimic acid]: the LC retention time is 2.29 min.

As for `O=C(c1ccccc1)c1ccccc1` [benzophenone], the LC retention time was 39.1 min.
